Experimental data as given in patent US20120094989A1, “5-HT RECEPTOR MODULATING COMPOUNDS” (priority 2009, published 2012).
At least one compound was matched to its structure with a doubt left.

By UniProt entry, the sequences of proteins in these tests, tags left out. Where a name states a change or a piece, a line headed by the entry shows the natural chain unless it says otherwise.
UniProt Q13639: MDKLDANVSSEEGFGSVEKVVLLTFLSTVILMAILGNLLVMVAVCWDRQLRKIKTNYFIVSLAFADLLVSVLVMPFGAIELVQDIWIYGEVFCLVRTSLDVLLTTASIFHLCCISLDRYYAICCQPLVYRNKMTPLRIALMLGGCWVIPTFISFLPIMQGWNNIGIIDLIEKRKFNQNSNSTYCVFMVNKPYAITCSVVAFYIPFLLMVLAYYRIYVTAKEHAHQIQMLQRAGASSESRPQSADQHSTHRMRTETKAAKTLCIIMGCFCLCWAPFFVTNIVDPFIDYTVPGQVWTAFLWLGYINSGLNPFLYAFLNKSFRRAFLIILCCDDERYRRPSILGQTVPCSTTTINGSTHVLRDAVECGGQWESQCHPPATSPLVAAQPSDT

Target: human 5-HT4(b) receptor (Homo sapiens, UniProt Q13639)
Assay: Adenylyl cyclase assay (antagonist pKb, agonist/antagonist properties)
Type: biochemical
Details: membranes of HEK293 cells stably expressing human 5-HT4(b) receptor
Protocol: The development of HEK293 cell lines stably expressing human 5-HT4(b) receptors was described and published previously (Bach et al. 2001). Briefly, HEK293 cells (ATCC) were grown in Dulbecco's modified Eagle's medium with 10% foetal calf serum and penicillin (100 U/ml) and streptomycin (100 μg/ml). Cells were transfected with plasmid DNA (pcDNA3.1(−) containing human 5-HT4(b) receptor cDNA) using SuperFect Transfection Reagent (QIAGEN) according to the manufacturers protocol. […]
Adenylyl cyclase activity was measured in membranes of HEK293 cells stably expressing the human 5-HT4(b) receptor (refs.) by determining conversion of [α-^32P]ATP to [^32P]cAMP in membranes prepared in STE by homogenization of cells grown and washed as described above in a Dounce glass-glass homogenizer by 10 strokes with the tight-fitting pestle. […] Adenylyl cyclase activities were measured in 10-μl aliquots in a final volume of 50 μl in the presence of 0.1 mM [α-^32P]ATP (1-2×10^6 cpm/assay), 4 mM MgCl2, 20 μM GTP, 1 mM EDTA, 1 mM [^3H]cAMP (ca. 10,000 cpm/assay), […] 3-isobutyl-1-methyl xanthine (IBMX; Sigma), a nucleoside triphosphate regenerating system consisting of 20 mM creatine phosphate (Sigma), 0.2 mg/ml creatine phosphokinase (Sigma) and 40 U/ml myokinase (Sigma) and additives described in the text and figures. […]

O=C(OCC1CCN(Cc2ccc(-c3ccccc3-c3nn[nH]n3)cc2)CC1)c1c2n(c3ccccc13)CCCO2 [Compound 4]
Agonist/Antagonist properties: Antagonist
